In PMC4239075:
Results are given in words; binding and its absence hold for the method and conditions named. In cells and extracts the contact can be indirect. Some results given as binding are weak or reduced against the parent protein; the word gives no strength. For some of these results: Sequences can lack the tags named with a protein.

Sequences of proteins named here, by UniProt entry; tags and fusion partners are left off. A change or cut given only in a name is not applied to a line headed by its entry.
UniProt O09106: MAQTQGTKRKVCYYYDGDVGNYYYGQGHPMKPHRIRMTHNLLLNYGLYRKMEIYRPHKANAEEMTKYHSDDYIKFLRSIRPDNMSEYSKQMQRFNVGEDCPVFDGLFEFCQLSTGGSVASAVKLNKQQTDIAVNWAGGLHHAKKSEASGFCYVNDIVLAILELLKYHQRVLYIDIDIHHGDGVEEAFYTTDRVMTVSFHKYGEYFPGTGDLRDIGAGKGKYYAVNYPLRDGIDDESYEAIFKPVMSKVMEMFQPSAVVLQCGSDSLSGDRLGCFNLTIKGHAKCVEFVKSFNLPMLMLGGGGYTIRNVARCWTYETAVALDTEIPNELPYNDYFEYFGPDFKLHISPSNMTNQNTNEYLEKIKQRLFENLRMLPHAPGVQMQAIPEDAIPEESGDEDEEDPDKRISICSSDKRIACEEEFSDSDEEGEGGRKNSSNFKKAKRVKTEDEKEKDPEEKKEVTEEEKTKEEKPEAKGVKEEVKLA
UniProt Q08369: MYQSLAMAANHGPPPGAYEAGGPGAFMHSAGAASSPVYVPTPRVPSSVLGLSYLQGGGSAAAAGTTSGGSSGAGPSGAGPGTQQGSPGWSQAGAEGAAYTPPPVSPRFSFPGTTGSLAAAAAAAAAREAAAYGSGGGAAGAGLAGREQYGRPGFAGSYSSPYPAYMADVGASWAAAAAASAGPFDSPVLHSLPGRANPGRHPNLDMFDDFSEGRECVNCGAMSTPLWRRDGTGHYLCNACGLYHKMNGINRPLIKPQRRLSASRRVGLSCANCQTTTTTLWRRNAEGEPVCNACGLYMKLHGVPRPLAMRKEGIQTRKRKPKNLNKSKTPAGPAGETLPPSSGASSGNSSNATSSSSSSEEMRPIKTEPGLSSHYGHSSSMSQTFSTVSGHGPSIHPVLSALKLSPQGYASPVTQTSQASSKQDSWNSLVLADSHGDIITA

Assays:
[1] = target: T1, Histone deacetylase 3 (mouse (endogenous in E14T ESCs)) (UniProt O88895); assay: co-IP; ESC lysate (1% Triton X-100, 50 mM Tris-HCl pH 7.4, 150 mM NaCl) incubated with anti-HDAC1 or anti-HDAC3-coated A/G beads for 4 h or overnight, control IgG; western blot for T/Bry or Gata4
T1 sequence: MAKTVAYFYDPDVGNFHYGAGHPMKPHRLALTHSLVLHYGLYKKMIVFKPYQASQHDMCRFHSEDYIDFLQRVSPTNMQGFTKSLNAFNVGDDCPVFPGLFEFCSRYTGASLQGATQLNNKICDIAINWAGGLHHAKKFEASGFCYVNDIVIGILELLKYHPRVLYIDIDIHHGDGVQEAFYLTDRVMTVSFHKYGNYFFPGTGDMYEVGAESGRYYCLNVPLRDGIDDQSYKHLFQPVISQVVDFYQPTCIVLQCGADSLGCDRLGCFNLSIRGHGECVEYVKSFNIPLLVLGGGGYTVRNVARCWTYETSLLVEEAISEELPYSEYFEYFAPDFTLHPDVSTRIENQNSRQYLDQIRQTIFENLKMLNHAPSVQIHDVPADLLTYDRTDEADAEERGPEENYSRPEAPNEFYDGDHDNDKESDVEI

[2] = target: T2, T-box transcription factor T/Bry (UniProt P20293); assay: co-IP; IP with control IgG or T/Bry antibody from lysate of cells expressing T/Bry, western blot for HDAC1 and HDAC3; 5% input
T2 sequence: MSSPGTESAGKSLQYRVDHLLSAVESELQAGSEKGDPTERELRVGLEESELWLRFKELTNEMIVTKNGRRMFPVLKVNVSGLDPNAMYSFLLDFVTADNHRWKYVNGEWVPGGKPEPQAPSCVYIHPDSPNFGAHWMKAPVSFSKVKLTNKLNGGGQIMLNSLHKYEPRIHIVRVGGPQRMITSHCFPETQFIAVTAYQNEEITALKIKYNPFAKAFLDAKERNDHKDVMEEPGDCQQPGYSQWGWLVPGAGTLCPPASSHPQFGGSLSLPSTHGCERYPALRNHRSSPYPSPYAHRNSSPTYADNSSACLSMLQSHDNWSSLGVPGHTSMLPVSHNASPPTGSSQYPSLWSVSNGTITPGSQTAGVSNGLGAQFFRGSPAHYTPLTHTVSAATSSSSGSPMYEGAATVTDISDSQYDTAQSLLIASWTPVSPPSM

[3] = target: Histone deacetylase 1 (mouse (endogenous in E14T ESCs)) (UniProt O09106); assay: co-IP; ESC lysate (1% Triton X-100, 50 mM Tris-HCl pH 7.4, 150 mM NaCl) incubated with anti-HDAC1 or anti-HDAC3-coated A/G beads for 4 h or overnight, control IgG; western blot for T/Bry or Gata4

Q: How did the binding [1] turn out when Gata4 (from UniProt Q08369 1-441) was run?
A: no binding

Q: For “Histone deacetylase 1 (from UniProt O09106 1-482) (enzyme)”, which binding [2] is on record?
A: binds

B1: T-box transcription factor T/Bry (protein, UniProt P20293 1-436)
chain: T2 sequence
Q: For B1, which binding [3] is on record?
A: binds

Q: And the binding [1]?
A: binds
